Results on one substance are retold here after PMC11866804.

Chains of the proteins cited; added tags and fusions are not shown. Residues count along the entry.
UniProt P21860, residues 20-1342: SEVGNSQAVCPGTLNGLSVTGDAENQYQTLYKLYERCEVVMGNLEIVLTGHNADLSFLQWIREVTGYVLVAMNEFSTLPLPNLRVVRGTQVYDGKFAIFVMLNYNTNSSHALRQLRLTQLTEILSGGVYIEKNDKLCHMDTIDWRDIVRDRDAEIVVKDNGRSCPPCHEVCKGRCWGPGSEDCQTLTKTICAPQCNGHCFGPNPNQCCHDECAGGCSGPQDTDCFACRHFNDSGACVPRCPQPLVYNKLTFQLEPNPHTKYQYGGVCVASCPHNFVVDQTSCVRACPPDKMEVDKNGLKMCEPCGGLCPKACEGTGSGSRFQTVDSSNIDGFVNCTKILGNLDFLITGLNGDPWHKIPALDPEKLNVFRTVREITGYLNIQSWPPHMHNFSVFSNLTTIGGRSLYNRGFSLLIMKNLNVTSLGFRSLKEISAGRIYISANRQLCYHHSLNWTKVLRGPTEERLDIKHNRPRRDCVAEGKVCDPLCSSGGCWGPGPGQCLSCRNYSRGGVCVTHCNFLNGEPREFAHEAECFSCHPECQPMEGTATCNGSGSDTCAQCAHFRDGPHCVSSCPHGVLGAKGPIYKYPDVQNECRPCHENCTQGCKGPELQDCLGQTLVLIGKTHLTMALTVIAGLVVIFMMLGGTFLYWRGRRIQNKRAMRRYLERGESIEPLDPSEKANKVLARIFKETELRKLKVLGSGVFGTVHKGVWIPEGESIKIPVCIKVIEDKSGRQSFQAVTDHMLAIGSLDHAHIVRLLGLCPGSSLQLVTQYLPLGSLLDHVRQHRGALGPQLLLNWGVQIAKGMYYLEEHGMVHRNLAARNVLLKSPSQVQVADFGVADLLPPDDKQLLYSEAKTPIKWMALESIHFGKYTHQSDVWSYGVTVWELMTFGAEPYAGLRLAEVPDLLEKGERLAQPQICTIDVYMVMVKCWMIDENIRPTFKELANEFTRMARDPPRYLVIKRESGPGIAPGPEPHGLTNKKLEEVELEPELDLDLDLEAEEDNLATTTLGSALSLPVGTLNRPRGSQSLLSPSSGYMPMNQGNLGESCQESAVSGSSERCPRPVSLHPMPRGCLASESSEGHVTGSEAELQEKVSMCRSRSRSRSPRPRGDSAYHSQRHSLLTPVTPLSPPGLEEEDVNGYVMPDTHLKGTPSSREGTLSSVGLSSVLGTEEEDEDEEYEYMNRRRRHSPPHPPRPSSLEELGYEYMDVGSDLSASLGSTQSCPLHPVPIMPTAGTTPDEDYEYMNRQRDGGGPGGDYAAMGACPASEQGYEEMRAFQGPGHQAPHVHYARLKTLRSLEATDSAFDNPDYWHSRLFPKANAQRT

No constants are given. Whether binding was seen depends on the method and setting. In cells and extracts the contact can be indirect. Some entries that bind do so weakly or less than the wild type.

In the assay the target is T1, CYLD (UniProt Q9NQC7).
T1 sequence: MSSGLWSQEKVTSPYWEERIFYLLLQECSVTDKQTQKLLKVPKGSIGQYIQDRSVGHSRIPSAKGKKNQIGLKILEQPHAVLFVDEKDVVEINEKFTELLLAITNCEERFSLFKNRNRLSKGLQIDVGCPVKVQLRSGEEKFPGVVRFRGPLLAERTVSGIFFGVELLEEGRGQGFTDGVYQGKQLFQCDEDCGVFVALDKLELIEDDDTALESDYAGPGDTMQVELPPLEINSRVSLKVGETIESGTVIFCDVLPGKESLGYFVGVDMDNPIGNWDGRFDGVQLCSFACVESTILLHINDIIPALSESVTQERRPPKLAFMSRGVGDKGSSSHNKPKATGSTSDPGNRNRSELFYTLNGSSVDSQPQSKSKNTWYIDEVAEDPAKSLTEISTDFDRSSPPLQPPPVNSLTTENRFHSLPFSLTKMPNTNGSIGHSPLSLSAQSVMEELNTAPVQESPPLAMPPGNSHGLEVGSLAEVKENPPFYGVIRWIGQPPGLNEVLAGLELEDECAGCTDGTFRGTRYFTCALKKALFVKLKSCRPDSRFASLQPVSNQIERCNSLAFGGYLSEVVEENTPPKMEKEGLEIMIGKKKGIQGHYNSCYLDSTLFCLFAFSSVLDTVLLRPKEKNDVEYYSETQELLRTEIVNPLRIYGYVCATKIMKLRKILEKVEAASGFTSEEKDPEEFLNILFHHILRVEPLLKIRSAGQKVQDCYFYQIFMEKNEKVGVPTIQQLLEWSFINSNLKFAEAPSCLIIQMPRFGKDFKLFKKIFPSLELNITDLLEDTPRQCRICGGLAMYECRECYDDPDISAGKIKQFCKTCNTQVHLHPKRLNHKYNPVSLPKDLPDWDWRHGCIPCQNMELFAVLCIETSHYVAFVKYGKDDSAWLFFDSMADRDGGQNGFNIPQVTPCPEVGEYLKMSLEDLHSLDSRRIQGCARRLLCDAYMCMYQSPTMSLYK
The assay is described as follows: co-IP; HEK293T cells transfected with HER3-Flag and CYLD plasmids for 48 h; immunoprecipitated with HER3 or CYLD antibodies (Immunoprecipitation Kit, Sigma); Western blotting. On the technique in general: A western blot detects proteins with antibodies after separation by electrophoresis.

“HER3-Flag (from UniProt P21860 20-1342) (receptor)”: the binding result is listed as “binds”.
